Reference: the supplement of paper PMC10849652
The other results are listed elsewhere or left out.

Sequences of proteins named here, by UniProt entry; tags and fusion partners are left off. A change or cut given only in a name is not applied to a line headed by its entry.
UniProt O15247: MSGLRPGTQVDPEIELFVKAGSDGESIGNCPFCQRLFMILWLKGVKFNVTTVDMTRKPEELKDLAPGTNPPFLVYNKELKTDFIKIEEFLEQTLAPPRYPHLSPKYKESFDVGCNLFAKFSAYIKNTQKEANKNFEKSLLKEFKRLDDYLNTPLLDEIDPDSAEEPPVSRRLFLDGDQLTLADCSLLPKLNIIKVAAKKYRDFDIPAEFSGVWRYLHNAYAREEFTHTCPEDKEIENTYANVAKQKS
UniProt Q8IZ52: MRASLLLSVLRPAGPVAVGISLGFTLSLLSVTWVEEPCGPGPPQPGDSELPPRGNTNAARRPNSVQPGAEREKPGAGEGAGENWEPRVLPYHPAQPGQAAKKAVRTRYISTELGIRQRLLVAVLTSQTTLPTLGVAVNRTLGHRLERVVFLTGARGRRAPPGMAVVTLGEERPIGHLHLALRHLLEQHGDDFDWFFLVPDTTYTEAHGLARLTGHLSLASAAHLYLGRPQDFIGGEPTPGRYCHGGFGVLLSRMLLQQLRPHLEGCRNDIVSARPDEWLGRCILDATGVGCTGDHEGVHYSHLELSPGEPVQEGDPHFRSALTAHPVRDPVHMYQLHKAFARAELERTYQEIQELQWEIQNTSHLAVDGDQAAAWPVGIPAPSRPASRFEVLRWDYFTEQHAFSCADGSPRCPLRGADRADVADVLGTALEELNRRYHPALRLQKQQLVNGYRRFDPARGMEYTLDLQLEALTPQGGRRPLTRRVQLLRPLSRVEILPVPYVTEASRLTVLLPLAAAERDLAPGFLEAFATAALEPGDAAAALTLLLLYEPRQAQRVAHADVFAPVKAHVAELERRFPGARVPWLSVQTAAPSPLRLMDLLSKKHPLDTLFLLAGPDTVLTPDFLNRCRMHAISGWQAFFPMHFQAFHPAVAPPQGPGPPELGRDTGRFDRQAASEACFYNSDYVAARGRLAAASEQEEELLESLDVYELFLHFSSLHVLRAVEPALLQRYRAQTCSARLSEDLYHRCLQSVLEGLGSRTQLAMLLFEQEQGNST
UniProt Q9Y2R0: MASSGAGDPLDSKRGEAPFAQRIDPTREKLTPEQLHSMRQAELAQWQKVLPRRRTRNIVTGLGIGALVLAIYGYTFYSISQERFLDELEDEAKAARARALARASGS
UniProt Q8NE01: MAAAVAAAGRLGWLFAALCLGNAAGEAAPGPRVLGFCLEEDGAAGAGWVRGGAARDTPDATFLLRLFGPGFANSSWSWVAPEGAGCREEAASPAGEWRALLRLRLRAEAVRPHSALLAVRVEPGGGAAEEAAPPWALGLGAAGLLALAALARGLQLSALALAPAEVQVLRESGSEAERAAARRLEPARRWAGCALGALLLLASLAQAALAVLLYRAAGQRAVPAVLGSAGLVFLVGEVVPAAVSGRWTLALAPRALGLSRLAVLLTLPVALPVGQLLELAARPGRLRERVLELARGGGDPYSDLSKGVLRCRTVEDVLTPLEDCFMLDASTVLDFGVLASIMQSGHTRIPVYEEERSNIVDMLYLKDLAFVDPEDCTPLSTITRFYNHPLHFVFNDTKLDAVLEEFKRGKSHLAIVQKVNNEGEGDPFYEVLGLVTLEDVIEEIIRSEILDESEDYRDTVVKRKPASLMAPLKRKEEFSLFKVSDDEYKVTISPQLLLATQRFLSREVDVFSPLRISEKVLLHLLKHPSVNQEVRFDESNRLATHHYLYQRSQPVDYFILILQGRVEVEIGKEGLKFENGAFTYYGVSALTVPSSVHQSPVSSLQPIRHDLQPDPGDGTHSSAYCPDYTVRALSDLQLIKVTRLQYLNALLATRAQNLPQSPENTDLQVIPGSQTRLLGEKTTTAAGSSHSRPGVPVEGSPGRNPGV
UniProt Q96MW5: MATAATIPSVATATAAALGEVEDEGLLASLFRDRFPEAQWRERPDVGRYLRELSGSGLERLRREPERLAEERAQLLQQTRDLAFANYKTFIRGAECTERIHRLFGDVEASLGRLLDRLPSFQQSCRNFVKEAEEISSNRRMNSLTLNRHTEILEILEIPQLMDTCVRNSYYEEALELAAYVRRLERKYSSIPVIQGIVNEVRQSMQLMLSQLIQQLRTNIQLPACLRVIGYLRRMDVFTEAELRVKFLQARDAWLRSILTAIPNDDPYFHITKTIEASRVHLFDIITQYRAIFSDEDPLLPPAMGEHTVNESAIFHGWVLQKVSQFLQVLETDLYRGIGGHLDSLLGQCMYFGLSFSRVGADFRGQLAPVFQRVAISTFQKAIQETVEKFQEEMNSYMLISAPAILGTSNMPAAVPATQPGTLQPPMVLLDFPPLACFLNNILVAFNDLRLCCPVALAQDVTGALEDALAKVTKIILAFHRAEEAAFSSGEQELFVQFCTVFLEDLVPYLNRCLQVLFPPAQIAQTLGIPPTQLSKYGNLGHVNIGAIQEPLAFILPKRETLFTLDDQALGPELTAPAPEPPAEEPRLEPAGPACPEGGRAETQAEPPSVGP
UniProt Q9Y2B0: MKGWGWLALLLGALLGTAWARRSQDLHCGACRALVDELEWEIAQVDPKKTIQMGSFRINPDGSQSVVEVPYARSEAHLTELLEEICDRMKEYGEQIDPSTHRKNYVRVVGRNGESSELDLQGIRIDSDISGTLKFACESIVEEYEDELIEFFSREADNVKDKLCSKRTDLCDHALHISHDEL
UniProt Q8WUH1: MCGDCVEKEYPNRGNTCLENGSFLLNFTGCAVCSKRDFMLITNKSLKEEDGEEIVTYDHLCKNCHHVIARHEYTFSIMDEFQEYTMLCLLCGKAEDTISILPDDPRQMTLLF
UniProt Q6FI81: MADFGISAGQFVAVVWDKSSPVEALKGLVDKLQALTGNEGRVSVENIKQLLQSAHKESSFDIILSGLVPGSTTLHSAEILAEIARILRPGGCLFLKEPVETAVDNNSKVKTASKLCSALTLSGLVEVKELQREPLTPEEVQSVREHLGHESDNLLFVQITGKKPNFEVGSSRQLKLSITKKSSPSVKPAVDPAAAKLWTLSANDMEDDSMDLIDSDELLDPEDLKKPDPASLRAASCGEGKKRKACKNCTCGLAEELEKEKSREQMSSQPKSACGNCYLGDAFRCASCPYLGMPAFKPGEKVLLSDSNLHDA
UniProt P09496: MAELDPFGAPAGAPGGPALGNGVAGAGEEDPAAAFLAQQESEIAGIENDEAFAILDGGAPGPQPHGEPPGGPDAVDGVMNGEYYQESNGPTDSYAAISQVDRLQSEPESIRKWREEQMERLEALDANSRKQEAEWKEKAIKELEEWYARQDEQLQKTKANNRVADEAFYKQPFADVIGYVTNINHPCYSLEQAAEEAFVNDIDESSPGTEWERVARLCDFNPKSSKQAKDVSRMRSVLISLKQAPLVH
UniProt Q96DG6: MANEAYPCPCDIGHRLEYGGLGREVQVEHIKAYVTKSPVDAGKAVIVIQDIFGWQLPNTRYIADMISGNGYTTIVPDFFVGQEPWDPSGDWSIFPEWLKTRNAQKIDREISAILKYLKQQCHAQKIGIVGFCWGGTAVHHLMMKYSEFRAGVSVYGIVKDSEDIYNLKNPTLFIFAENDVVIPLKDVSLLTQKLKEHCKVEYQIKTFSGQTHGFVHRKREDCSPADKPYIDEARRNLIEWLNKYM
UniProt Q9NWW5: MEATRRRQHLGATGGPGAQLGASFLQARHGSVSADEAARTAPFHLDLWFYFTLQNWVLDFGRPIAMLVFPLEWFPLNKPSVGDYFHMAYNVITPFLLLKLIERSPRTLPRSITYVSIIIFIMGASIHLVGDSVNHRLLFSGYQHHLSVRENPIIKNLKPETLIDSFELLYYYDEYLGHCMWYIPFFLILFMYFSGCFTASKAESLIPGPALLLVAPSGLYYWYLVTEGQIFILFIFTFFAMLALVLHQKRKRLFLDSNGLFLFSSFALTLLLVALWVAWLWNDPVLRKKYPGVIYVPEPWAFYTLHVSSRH
UniProt Q9C0A0: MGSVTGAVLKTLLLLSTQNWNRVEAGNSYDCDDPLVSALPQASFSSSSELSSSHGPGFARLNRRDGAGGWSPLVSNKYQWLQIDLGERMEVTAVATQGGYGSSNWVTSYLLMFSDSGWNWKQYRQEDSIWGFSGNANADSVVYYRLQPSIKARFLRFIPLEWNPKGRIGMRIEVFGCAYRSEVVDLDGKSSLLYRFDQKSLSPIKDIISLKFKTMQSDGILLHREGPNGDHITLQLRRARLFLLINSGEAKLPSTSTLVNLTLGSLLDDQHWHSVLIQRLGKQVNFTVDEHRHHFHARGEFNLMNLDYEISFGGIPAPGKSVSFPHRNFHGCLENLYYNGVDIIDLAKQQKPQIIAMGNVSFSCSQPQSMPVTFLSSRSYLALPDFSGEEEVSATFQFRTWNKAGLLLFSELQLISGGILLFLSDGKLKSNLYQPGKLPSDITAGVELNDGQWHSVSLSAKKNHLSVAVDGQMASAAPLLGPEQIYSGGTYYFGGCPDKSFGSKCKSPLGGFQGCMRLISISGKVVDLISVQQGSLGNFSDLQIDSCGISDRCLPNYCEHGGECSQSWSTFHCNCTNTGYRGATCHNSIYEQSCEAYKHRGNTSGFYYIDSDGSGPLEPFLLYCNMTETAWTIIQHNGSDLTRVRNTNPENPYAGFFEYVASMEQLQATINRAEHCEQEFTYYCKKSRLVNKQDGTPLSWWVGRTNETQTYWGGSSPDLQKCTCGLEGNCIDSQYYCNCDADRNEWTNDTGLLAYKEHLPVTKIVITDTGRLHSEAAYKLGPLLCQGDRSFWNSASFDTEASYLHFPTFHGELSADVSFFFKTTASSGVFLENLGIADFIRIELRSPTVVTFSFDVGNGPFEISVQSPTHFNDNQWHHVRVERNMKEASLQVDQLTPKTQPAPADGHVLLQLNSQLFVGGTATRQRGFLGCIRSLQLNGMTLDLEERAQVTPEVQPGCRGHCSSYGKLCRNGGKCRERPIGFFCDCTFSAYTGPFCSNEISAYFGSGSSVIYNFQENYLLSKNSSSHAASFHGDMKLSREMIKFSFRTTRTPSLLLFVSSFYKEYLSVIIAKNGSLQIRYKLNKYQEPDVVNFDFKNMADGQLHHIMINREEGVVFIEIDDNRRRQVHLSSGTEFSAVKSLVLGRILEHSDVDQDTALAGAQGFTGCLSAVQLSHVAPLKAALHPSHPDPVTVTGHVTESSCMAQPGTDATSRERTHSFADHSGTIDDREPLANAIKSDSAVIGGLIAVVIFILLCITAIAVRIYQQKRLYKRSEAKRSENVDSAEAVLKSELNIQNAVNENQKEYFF
UniProt Q07065: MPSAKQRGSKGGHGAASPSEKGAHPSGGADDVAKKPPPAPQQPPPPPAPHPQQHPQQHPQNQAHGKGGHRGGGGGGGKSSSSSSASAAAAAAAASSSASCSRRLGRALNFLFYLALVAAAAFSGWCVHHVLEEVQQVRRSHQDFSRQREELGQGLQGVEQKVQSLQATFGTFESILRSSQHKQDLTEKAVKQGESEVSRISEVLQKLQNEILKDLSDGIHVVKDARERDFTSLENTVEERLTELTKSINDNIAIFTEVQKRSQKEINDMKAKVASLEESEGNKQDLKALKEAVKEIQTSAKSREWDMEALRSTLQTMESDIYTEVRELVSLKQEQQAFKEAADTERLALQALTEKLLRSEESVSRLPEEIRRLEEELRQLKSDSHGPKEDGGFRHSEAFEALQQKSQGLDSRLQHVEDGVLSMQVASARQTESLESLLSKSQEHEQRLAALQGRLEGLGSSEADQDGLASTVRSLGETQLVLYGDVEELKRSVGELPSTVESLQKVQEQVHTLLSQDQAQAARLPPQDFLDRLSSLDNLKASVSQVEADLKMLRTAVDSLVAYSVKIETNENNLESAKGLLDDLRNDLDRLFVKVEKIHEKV
UniProt P05452, whole entry, looked up: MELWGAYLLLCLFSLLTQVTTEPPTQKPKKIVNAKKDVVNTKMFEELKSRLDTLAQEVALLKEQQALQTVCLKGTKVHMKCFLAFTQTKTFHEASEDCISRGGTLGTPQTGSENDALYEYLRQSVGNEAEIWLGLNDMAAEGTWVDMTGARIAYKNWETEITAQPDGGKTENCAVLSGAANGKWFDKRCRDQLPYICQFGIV
UniProt Q9NY35: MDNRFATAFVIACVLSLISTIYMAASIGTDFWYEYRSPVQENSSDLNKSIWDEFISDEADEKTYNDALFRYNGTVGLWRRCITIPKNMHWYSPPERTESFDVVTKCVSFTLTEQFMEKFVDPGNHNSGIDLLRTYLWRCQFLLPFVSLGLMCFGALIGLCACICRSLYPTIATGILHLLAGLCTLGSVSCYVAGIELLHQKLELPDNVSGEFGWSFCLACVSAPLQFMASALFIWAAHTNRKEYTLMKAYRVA
UniProt Q9UFF9, whole entry, looked up: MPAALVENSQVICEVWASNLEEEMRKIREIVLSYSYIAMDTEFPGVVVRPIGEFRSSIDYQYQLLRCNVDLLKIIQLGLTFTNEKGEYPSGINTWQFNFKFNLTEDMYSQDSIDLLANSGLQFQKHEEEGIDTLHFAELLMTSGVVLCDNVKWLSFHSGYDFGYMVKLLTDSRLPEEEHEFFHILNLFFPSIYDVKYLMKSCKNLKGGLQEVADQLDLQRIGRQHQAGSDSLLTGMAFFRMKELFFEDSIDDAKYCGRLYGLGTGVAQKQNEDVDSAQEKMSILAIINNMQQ

Compound: c1cn2cc(-c3ccc4cn[nH]c4c3)nc(Nc3ccc(N4CCOCC4)cc3)c2n1 [entospletinib]
Test: log2 fold change, soluble protein after heating vs DMSO (PISA); higher = thermal stabilisation; K562 cells, 10 uM, 30 min; active = over 0.2 and 3.5 SD of the protein, either way, in both replicates (recomputed)
In short: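 Quantification of soluble protein used TMTpro 16plex LC-MS/MS, with channel sums equalised. Samples were the supernatant after 21,000xg for 90 min of pooled aliquots from K562 cells (2×10^6 cells/mL) treated with 10 μM compound for 30 min, heated for 3 min over 48°C-58°C, and extracted in PBS with 0.5% NP-40 at 4°C. Values, from duplicates, describe thermal stability against control samples on a log2 fold-change scale.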

log2 fold change, inactive:
CLIC2 (UniProt O15247) -0.008
CHPF (UniProt Q8IZ52) 0.074
CLPB isoform 2 (UniProt Q9H078) 0.002
COA3 (UniProt Q9Y2R0) 0.041
CNNM3 (UniProt Q8NE01) 0.024
CKMT1A (UniProt P12532) 0.003
COG8 (UniProt Q96MW5) 0.12
CLPTM1 (UniProt O96005) -0.009
CNTRL (UniProt Q7Z7A1) 0.051
CNPY2 (UniProt Q9Y2B0) -0.001
CHURC1 isoform 2 (UniProt Q8WUH1) -0.033
CHRAC1 (UniProt Q9NRG0) -0.038
CIAO2A (UniProt Q9H5X1) -0.011
CIAPIN1 (UniProt Q6FI81) -0.087
CNOT3 (UniProt O75175) 0.004
CLP1 (UniProt Q92989) 0.081
CLTA isoform 2 (UniProt P09496) 0.056
CMBL (UniProt Q96DG6) 0.008
CLIP4 (UniProt Q8N3C7) 0.043
CLN6 (UniProt Q9NWW5) -0.066
CNTNAP4 (UniProt Q9C0A0) 0.068
COA1 (UniProt Q9GZY4) 0.03
CNOT6L (UniProt Q96LI5) 0.06
CKAP4 (UniProt Q07065) -0.011
CLCN6 isoform 5 (UniProt P51797) -0.002
CIAO2B (UniProt Q9Y3D0) 0.093
CLEC3B (UniProt P05452) 0.225
CLDND1 (UniProt Q9NY35) 0.104
CNOT8 (UniProt Q9UFF9) 0.046

Pulled one by one from the entries so far (2):
log2 fold change, inactive:
COG8 (UniProt Q96MW5) 0.12
CLIC2 (UniProt O15247) -0.008
